Reference: publication PMC11087270, “CryoEM structures reveal how the bacterial flagellum rotates and switches direction” (Nature Microbiology, 2024)
No constants are given. Whether binding was seen depends on the method and setting. A result given as binding can be weak or reduced; the word gives no strength.

Amino acid sequences for entries named in this document (tags omitted). A change or cut given only in a name is not applied to a line headed by its entry.
UniProt P26418: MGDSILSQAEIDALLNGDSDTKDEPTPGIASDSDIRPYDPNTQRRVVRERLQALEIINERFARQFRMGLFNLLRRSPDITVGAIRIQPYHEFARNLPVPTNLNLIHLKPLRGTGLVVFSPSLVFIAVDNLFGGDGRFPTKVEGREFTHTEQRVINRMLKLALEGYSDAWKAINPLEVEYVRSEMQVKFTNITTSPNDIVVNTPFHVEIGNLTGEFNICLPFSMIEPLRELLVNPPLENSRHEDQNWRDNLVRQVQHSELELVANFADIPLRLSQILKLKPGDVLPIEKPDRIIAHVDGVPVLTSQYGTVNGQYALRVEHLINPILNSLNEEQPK

How the values were obtained:
[1] = molecular target: FliM (S. enterica serovar typhimurium), C-ring switch subunit (S. enterica serovar typhimurium) (UniProt P26418); assay: cryo-EM structure; MSC-ring particles with FliG ΔPAA (CW pose); C34 symmetry applied, symmetry expansion and local refinement of three staves; 4.6 Å; both purified
[2] = molecular target: FliM (S. enterica serovar typhimurium), C-ring switch subunit (S. enterica serovar typhimurium) (UniProt P26418); assay: cryo-EM structure; wild-type MSC-ring particles (CCW pose); MS-ring or C-ring removed by particle subtraction; C-ring 34-mer at 4.0 Å (33-, 35-, 36-mer classes too), MS-ring 33-mer at 3.4 Å; both purified

binding [1] | binding [2] | Binder
binds |  | FliN (S. enterica serovar typhimurium), C-ring switch subunit (natural protein, UniProt P26419 1-137, looked up, FliN, S. enterica serovar typhimurium, expressed from the fliN gene on plasmid pKLR3; residues 45/59/63-137 of the three non-equivalent copies modelled in the C-ring; no tag is told; also called FliNC; FliN1; source: E. coli BL21-Gold, coexpressed from plasmid pKLR3; MSC-ring particles partially purified by differential membrane extraction) MSDMNNPSDENTGALDDLWADALNEQKATTTKSAADAVFQQLGGGDVSGAMQDIDLIMDIPVKLTVELGRTRMTIKELLRLTQGSVVALDGLAGEPLDILINGYLIAQGEVVVVADKYGVRITDIITPSERMRRLSR
 | binds | FliG (S. enterica serovar typhimurium), wild type, C-ring switch subunit (natural protein, UniProt P0A1J9 1-331, looked up, FliG, S. enterica serovar typhimurium, expressed from the fliG gene on plasmid pKLR3; residues 1-331 modelled in the C-ring; no tag is told; also called FliGD1; FliGD2; source: E. coli BL21-Gold, coexpressed from plasmid pKLR3; MSC-ring particles partially purified by differential membrane extraction) MSNLSGTDKSVILLMTIGEDRAAEVFKHLSTREVQALSTAMANVRQISNKQLTDVLSEFEQEAEQFAALNINANEYLRSVLVKALGEERASSLLEDILETRDTTSGIETLNFMEPQSAADLIRDEHPQIIATILVHLKRSQAADILALFDERLRHDVMLRIATFGGVQPAALAELTEVLNGLLDGQNLKRSKMGGVRTAAEIINLMKTQQEEAVITAVREFDGELAQKIIDEMFLFENLVDVDDRSIQRLLQEVDSESLLIALKGAEPPLREKFLRNMSQRAADILRDDLANRGPVRLSQVENEQKAILLIVRRLAETGEMVIGSGEDTYV
